This is a selection; strong and weak results do not stand in their true shares. For part of these data: At the low end of the ranking the order means little. Some of the results follow. For part of these data: The source does not settle which construct or isoform was used.
Tests used:
Assay in all cases: DAPPL (digital affinity profiling via proximity ligation, sequencing)
Conditions in all cases: 10 mM Tris-HCl pH 7.5, 50 mM NaCl, 1 mM DTT, 4% glycerol, room temperature, 30 min; GST-TFs on glutathione beads, 16-mer random dsDNA library, 0.1% …; high values mean tight binding; double strand, one strand shown; scale: fold enrichment (6-mer frequency, TF over GST control)
[1] = target: T1, GABPA (UniProt Q06546)
T1 sequence: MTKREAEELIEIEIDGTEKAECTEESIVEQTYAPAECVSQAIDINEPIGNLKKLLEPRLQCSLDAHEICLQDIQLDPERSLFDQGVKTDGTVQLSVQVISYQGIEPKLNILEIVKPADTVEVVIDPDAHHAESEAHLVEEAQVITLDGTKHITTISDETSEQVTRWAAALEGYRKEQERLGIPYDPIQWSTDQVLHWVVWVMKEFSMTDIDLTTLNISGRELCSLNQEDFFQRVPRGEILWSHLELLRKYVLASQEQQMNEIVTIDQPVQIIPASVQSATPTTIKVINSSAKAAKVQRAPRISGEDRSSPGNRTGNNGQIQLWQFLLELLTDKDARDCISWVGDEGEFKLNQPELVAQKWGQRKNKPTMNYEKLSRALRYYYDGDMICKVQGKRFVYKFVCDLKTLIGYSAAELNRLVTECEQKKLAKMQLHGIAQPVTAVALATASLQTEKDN

[2] = target: T2, ETS1 (UniProt P14921)
T2 sequence: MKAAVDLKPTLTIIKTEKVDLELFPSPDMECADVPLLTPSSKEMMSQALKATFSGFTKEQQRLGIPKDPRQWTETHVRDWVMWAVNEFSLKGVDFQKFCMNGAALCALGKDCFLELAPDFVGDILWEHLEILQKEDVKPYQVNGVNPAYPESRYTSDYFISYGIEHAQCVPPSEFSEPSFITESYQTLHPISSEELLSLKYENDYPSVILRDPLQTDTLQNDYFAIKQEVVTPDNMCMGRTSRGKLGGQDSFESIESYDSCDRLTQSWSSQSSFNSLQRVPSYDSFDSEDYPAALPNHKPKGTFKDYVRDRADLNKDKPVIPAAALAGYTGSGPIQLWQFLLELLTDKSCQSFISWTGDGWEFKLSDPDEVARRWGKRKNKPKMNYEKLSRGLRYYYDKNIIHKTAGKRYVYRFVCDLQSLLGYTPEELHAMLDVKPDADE

[3] = target: T3, SPDEF (UniProt O95238)
T3 sequence: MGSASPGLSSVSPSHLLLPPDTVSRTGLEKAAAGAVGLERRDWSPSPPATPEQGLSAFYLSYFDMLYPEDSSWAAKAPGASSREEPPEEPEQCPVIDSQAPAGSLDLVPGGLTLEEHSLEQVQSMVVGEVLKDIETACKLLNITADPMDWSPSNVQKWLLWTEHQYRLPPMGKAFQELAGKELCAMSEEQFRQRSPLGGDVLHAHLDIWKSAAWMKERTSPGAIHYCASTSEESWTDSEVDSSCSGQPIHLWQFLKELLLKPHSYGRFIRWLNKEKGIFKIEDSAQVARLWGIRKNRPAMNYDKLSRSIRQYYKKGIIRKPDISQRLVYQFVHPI

| Sequence | binding signal [1] | binding signal [2] | binding signal [3] |
| --- | --- | --- | --- |
| GTCGAG | 0.459 | 0.447 | 0.451 |
| ACGAGT | 0.78 | 0.823 | 0.72 |
| CATCGG | 0.681 | 0.662 | 0.679 |
| TGTGAA | 0.918 | 0.895 | 0.9 |
| GGGAAG | 0.808 | 0.857 | 0.73 |
| GTCGCA | 0.802 | 0.726 | 0.714 |
| GATCGG | 0.485 | 0.491 | 0.44 |
| TGAGAA | 0.731 | 0.758 | 0.657 |
| CTGAGA | 0.805 | 0.766 | 0.741 |
| CGTGTC | 0.705 | 0.804 | 0.856 |
| AGCGGG | 0.416 | 0.468 | 0.419 |
| AGCCGA | 0.94 | 0.866 | 0.752 |
| AGGTTG | 0.733 | 0.77 | 0.769 |
| GCGGTC | 0.632 | 0.704 | 0.594 |
| TGAGTA | 0.404 | 0.441 | 0.382 |
| AGACGT | 0.484 | 0.446 | 0.431 |
| TGAGAT | 0.754 | 0.675 | 0.686 |
| GTCGTT | 0.684 | 0.708 | 0.678 |
| GGGATA | 0.767 | 0.724 | 0.859 |
| AGTTCA | 0.935 | 0.902 | 0.926 |
| GGACCG | 0.784 | 0.817 | 0.846 |
| GTGTCG | 0.564 | 0.643 | 0.629 |
| ATCGGT | 0.692 | 0.722 | 0.64 |
| ACGTCG | 0.654 | 0.702 | 0.637 |
| AGGAGC | 0.426 | 0.418 | 0.355 |
| GCAGTG | 0.555 | 0.565 | 0.534 |
| CCGTTG | 0.852 | 0.915 | 0.925 |
| TCGGGG | 0.409 | 0.42 | 0.402 |
| CCGTGT | 0.511 | 0.499 | 0.619 |
| GGACTA | 0.924 | 0.805 | 0.897 |

Two successive records from above:

| Sequence | binding signal [1] | binding signal [2] | binding signal [3] |
| --- | --- | --- | --- |
| AGTTCA | 0.935 | 0.902 | 0.926 |
| GGACCG | 0.784 | 0.817 | 0.846 |
